# Whole data set: some 33,000 sequences, median “E-score (-0.5 to 0.5)” near -0.016, cut for the highest 2% near 0.3. The list shows a part of the results.
# Target: T1, Yer184c (UniProt P39961)
# T1 sequence: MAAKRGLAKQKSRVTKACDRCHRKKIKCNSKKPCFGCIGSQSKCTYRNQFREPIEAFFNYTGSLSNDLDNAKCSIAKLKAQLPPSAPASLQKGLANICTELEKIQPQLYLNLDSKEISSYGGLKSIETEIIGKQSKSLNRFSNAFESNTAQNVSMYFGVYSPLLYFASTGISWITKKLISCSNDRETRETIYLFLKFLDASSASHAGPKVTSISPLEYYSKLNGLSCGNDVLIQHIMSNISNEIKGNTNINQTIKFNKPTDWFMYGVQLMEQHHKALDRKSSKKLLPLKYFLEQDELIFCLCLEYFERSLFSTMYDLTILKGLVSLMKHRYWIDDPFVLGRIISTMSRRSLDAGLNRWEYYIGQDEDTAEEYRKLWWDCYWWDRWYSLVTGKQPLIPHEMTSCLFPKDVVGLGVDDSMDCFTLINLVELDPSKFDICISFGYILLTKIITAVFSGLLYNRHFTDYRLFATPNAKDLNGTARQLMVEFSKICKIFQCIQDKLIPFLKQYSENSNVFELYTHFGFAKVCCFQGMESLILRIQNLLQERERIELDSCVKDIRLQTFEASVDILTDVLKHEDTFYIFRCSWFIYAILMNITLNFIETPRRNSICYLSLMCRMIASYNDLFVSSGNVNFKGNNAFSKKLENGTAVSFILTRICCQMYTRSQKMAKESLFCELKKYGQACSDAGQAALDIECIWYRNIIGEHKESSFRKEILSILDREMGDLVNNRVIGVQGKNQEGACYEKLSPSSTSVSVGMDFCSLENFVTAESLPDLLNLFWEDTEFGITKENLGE
# Test: PBM E-score (8-mer binding enrichment) (E-score (-0.5 to 0.5)); higher = stronger / more preferred TF binding
# Settings: protein concentration: 100 nM; construct: GST-full length
# How it was run: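 GST-tagged yeast TFs (full-length or DNA-binding domain) were made by PURExpress in vitro transcription/translation and applied at about 100-200 nM to universal all-10-mer Agilent arrays. The arrays were made double-stranded by primer extension, on fresh or once-stripped slides. Bound protein was detected with fluorescent anti-GST, and scans were normalised with masliner. Each ungapped eight-base word, pooled with its reverse complement, received an E-score (modified Wilcoxon-Mann-Whitney statistic) from the Universal PBM Analysis Suite.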
row,Sequence,PBM E-score
1,GGGCGTTA,-0.123
2,GTCCGACA,0.201
3,TAGTCTGA,0.0733
4,ACACCGAC,0.153
5,ATGATTTA,0.141
6,GGCAAATA,0.152
7,CATCGGGA,0.163
8,CAGGAGGG,-0.237
9,GTCCCATA,-0.202
10,GCAACCAA,0.124
11,CTTCCCAC,-0.0708
12,AGAACTAA,0.18
13,GGAACACC,0.081
14,ATCGACGG,-0.124
15,TCAACGCA,-0.0171
16,GACCCTCC,-0.0144
17,GACGGTGA,-0.106
18,CGTAGAGC,-0.116
19,CCATTCGA,-0.13
20,CATAATTA,0.233
21,CTCCGAGC,0.271
22,AAGATGTA,-0.0561
23,ACGGGTTC,0.0138
24,ACCCTAAT,-0.114
25,GGCTCTAC,-0.0478

row,Sequence,PBM E-score
1,TAAGACAA,0.0651
2,GGCTCAAC,0.00041
3,CCGAAATC,0.284
4,CGTCTTAC,-0.0959
5,CCCTTACG,-0.254
6,TGTGCAAA,-0.116
7,CATATCTA,0.0744
8,AGCGGGTA,-0.0774
9,AACACGCA,0.0105
10,CGTCTCCC,0.0152
11,GCATGCGC,-0.0828
12,AGACTTGA,-0.0487
13,AGTACAAT,0.139
14,TGTTGGAA,0.127
15,CATGCCCC,-0.232
16,AGCAGATC,-0.00356
17,ATATTTGC,0.207
18,ATCGCAGG,-0.173
19,GAGCGTGC,-0.0226
20,AAATAACG,0.085
21,GCAGAGGC,-0.21
22,CGGGCGAG,0.0378
23,ATCGCCTG,-0.0991
24,AGACGCAA,0.127
25,GGGCAGAA,0.0881

row,Sequence,PBM E-score
1,ATTGAGAC,0.0754
2,CACTTTAG,-0.228
3,GGATGTAA,0.193
4,GGATTCTA,0.0641
5,ATCTGTTC,0.0367
6,CTCGTAGC,-0.0534
7,AGCGAGGA,0.00211
8,CATGAAAG,-0.05
9,CATACGGA,0.263
10,CCGGGCGC,0.178
11,AGGGCAAA,-0.0339
12,GCGCAAAC,-0.0188
13,GCTGCAAC,-0.0333
14,ATGTGTTC,0.163
15,GCCAGCAC,-0.154
16,TCCGGAAA,0.449
17,TCGACGAA,0.116
18,CGCACCCG,0.134
19,GTTAGGAA,0.0947
20,CACATGAG,-0.293
21,ATGCCCGC,-0.0889
22,CAACTACC,-0.0226
23,CGAGCGCA,0.129
24,TAGACGCA,0.0173
25,ACTTAAAC,0.0716

# Taken from above.
# PBM E-score, GGATTCTA reads 0.0641
# PBM E-score, ATCTGTTC reads 0.0367
# PBM E-score, CTCGTAGC reads -0.0534
# PBM E-score, ATGCCCGC reads -0.0889
# PBM E-score, CACTTTAG reads -0.228
# PBM E-score, TCGACGAA reads 0.116
# PBM E-score, CATGAAAG reads -0.05

# Laid out differently: results already given
row | Sequence | PBM E-score
8 | CAGGAGGG | -0.237
19 | CCATTCGA | -0.13

# The listing continues.

row,Sequence,PBM E-score
1,CTGTCCAC,-0.0573
2,AAATATAA,0.327
3,CCACGAGG,-0.166
4,ACTACAGC,-0.015
5,CCGGGCGA,0.0828
6,AAACCGAG,0.177
7,ATGACACG,0.0436
8,AGCGTCGC,-0.123
9,GCATAATA,0.18
10,AGGACGGA,-0.125
11,AAGCAGGG,-0.147
12,ACAATTTG,-0.0492
13,AAACTGTA,0.0379
14,GGTGGGGA,-0.00331
15,AGTGTAAT,-0.0238
16,CACTAAAC,0.142
17,AAACGGCG,0.133
18,CCCATGCA,-0.162
19,TCTATAAA,0.11
20,CATCTTAC,-0.139
21,ACAACTAT,0.201
22,AGCATAGG,-0.286
23,CGGATATC,0.285
24,ATAGTCGA,0.0238
25,ACACTAGA,0.0639

row,Sequence,PBM E-score
1,AAGTAGGC,-0.077
2,AGATGCCG,0.24
3,AGGGGATG,-0.235
4,ACGATGGA,0.0157
5,ATTGATGA,0.0515
6,CGGCCCAA,0.197
7,CGGAACCA,0.338
8,GACTAGCC,-0.191
9,ACCGCGAG,-0.0856
10,TTAGTAAA,0.237
11,GCTTGTTA,0.0601
12,GCCCTTTA,-0.293
13,AATAAGCT,0.155
14,ACCACCAT,-0.0904
15,GATTTAAA,-0.00451
16,CGTCTTGC,-0.128
17,AGGGCTTC,-0.0909
18,GGCCGATA,0.264
19,ATCAAGAT,0.0506
20,TTCACGAA,-0.0327
21,ATGGCTTA,-0.00903
22,ACCTATCG,-0.0246
23,TACTTTAA,0.0235
24,ACAAGGGG,-0.21
25,CAGGCCCC,-0.398

row,Sequence,PBM E-score
1,CCAATATA,-0.067
2,CATTCCGG,0.318
3,GCCATTAC,-0.155
4,GCTATAGC,-0.149
5,AAGCTAGG,0.0176
6,CCCCAGTC,-0.277
7,CAGCAATA,0.0101
8,AGCCGAGA,0.326
9,GGCACCCC,-0.327
10,ATAGACGC,0.00262
11,CCGCTGCA,-0.0816
12,ATCAGGAA,0.068
13,CTGTGACA,-0.0291
14,CTGCGAAG,-0.237
15,AACAGAGC,0.00129
16,AACATCTG,-0.0891
17,AATCTTCT,-0.0361
18,AGAATCCG,0.252
19,TCGGGAGA,-0.0578
20,AGACACGG,0.0867
21,CTGTCTTA,0.0838
22,ATGCCCCA,-0.192
23,CGACTAGC,-0.0269
24,CAAGGAGG,-0.165
25,ACATTTTG,0.00796

row,Sequence,PBM E-score
1,CCACAAAG,0.0966
2,CCGAATAA,0.346
3,ACCCACAT,-0.0165
4,ACAGAAGA,0.029
5,GTACGCTA,-0.172
6,ACGGTGTG,-0.0972
7,CAACAACC,0.0302
8,CCTCTGAC,-0.149
9,CTAAGTTA,0.0886
10,AAGATCAT,0.0392
11,CGAGCCAC,-0.181
12,TCCTCAGA,-0.118
13,CGCGCAAG,0.172
14,GATTAATA,0.154
15,GGGGAATA,-0.0423
16,TAAAACAA,0.196
17,ATAACGAC,-0.0981
18,CCAACGAC,-0.102
19,ACCAGACC,-0.0678
20,GAGAATTA,0.104
21,ACCTCCGG,0.357
22,AGAATCCA,-0.0487

# Source: the supplement of paper PMC3334620
